In paper PMC3917433:
No constants are given. Whether binding was seen depends on the method and setting. Some entries that bind do so weakly or less than the wild type.

By UniProt entry, the sequences of proteins in these tests, tags left out.
UniProt Q5VU43: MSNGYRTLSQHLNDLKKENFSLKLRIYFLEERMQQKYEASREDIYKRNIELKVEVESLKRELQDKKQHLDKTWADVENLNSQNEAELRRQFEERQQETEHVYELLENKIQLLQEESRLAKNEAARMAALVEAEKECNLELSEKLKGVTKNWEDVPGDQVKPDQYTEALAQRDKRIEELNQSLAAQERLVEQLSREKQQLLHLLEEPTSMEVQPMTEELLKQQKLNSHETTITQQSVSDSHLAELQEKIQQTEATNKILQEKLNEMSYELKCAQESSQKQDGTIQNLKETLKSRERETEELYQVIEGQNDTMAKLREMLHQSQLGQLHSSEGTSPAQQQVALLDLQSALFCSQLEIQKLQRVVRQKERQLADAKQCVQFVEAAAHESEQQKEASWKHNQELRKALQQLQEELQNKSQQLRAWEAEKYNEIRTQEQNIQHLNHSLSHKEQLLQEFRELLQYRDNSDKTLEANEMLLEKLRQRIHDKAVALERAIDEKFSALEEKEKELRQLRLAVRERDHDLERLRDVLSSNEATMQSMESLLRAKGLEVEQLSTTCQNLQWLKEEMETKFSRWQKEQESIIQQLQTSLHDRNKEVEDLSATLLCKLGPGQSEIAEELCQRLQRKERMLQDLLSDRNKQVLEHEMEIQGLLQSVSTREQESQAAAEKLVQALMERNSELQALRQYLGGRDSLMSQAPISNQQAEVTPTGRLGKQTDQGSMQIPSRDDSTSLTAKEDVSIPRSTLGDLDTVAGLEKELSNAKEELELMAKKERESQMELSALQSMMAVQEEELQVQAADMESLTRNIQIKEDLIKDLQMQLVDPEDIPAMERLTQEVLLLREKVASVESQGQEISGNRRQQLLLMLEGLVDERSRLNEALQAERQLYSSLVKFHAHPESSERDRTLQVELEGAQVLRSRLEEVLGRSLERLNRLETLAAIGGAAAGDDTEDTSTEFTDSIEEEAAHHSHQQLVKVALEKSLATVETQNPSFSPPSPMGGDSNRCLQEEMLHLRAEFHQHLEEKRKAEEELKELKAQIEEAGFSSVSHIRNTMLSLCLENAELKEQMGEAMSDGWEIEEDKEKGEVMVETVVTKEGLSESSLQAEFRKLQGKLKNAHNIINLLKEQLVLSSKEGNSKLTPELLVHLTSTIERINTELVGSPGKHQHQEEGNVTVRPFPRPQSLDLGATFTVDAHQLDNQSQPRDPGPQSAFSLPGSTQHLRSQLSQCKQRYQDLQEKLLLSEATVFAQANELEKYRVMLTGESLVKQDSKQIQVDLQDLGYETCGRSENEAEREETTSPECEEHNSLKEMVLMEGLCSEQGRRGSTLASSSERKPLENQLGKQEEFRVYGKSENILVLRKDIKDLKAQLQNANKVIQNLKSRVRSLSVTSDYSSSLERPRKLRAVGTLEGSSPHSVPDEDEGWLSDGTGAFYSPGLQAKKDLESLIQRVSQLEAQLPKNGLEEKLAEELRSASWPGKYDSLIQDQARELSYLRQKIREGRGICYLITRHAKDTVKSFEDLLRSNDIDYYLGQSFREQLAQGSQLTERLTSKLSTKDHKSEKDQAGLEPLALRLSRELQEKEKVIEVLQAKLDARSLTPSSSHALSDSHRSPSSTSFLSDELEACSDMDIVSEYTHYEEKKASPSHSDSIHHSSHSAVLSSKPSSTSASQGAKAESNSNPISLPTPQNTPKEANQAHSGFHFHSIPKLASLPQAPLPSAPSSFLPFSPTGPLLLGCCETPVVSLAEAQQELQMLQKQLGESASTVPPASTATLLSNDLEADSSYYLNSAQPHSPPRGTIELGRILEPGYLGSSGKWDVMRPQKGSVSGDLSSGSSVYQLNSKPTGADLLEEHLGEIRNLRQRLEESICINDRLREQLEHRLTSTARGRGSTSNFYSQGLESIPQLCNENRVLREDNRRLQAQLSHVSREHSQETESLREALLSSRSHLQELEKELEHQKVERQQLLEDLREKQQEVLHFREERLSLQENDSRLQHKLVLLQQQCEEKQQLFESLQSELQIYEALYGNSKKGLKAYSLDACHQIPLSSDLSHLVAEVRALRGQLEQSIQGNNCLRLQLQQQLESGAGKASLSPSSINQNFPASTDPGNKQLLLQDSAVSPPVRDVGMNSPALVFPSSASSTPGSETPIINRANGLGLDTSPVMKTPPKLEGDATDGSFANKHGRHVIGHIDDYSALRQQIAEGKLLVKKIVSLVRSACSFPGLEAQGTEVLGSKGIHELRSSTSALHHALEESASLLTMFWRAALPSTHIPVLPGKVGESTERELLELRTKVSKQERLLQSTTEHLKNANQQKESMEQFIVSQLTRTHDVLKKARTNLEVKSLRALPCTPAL
UniProt P23588: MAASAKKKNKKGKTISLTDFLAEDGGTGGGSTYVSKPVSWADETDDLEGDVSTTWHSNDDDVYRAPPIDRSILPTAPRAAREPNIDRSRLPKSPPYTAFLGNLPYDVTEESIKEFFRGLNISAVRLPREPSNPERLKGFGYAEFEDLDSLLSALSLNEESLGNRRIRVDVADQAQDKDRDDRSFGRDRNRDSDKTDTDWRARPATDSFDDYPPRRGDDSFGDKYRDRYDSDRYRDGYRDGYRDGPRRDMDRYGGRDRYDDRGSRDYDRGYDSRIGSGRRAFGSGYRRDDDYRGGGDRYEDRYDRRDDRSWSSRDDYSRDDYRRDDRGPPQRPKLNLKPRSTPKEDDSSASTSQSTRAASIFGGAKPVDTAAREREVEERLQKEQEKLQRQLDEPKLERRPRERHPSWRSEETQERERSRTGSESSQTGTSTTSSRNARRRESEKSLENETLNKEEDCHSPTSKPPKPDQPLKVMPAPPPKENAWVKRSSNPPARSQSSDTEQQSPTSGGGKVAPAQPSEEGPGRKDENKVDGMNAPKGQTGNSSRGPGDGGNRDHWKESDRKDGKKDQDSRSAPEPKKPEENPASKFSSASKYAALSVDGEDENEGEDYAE
UniProt P13202: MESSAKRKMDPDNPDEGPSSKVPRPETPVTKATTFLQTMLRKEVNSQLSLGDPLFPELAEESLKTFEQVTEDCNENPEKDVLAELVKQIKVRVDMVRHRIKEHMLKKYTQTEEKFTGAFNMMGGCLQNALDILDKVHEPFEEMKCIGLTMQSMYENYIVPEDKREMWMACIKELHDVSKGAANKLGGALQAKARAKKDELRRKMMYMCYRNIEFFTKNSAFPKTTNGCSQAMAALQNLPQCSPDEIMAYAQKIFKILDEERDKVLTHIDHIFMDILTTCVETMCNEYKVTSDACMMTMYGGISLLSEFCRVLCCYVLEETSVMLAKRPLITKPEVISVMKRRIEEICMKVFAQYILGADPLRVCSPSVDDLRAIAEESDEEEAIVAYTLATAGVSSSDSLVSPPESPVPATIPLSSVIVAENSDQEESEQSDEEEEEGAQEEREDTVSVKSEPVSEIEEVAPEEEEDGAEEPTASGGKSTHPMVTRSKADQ

Key:
Assay in all cases: peptide or protein array; only the binder purified
[1] = molecular target: Phosphodiesterase 4D interacting protein (myomegalin) (human) (UniProt Q5VU43)
[2] = molecular target: T1, zinc finger protein 36, C3H type-like 2 (ZFP36L2) (human) (UniProt P47974)
T1 sequence: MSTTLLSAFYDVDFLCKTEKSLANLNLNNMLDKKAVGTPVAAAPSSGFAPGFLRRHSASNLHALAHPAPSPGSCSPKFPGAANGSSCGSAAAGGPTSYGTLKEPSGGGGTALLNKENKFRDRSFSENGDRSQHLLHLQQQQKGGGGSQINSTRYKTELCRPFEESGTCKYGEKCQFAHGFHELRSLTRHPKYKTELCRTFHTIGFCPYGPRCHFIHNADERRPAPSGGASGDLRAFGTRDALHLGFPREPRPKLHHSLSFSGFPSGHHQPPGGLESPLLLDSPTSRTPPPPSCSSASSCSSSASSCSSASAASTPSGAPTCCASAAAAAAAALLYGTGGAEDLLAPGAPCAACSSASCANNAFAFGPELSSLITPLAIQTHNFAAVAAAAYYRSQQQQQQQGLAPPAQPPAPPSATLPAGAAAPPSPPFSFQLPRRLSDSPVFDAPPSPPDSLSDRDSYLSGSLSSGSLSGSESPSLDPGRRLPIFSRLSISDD

[3] = molecular target: Eukaryotic translation initiation factor 4B (EIF4B) (human) (UniProt P23588)
[4] = molecular target: T2, Ring finger protein 10 (RNF10) (human) (UniProt Q8N5U6)
T2 sequence: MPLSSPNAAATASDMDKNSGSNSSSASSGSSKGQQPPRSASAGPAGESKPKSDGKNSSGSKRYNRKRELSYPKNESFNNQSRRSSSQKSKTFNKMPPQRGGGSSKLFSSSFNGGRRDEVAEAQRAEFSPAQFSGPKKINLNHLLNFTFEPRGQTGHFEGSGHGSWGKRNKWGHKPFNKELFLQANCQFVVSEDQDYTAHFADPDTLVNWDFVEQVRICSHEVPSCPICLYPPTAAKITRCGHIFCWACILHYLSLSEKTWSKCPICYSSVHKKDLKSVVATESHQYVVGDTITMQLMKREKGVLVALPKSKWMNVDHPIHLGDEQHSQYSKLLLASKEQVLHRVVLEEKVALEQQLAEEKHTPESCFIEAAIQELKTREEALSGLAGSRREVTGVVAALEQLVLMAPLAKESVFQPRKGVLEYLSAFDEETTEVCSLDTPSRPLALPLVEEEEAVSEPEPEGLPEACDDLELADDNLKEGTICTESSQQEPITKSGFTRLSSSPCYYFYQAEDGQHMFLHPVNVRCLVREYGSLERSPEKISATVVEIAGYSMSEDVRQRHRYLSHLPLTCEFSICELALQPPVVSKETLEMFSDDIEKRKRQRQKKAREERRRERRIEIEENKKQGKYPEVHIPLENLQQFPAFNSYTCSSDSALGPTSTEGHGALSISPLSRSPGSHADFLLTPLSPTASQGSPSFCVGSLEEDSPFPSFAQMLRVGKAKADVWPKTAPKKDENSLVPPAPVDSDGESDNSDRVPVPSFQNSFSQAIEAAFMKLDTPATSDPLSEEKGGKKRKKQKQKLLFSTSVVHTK

[5] = molecular target: T3, tumor necrosis factor, alpha-induced protein 2 (TNFAIP2) (human) (UniProt Q03169)
T3 sequence: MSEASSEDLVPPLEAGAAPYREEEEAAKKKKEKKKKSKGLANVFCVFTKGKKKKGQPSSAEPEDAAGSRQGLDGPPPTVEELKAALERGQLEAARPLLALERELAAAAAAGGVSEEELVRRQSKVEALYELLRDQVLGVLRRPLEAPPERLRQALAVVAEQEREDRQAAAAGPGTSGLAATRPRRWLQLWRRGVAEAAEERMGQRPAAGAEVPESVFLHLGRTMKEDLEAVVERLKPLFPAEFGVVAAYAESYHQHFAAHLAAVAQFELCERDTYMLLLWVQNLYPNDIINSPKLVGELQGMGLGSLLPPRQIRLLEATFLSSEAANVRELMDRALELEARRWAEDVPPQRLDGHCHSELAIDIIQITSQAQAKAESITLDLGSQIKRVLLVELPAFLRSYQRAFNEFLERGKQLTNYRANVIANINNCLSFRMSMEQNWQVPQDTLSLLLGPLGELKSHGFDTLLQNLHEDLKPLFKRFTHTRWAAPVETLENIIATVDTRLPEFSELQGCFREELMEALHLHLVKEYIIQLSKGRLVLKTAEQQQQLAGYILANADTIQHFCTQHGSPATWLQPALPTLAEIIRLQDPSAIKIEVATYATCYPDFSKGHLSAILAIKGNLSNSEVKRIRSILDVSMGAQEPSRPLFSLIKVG

Measured: binding

Human cytomegalovirus immediate-early protein 1 (from UniProt P13202 1-491)
binds: all assays above
